Reference: publication PMC7949057, “The cytoprotective protein MANF promotes neuronal survival independently from its role as a GRP78 cofactor” (The Journal of Biological Chemistry, 2021)
These are yes or no findings as the source states them, for the method shown. Binding seen in cells or lysates may run through a third protein.

Protein sequences, listed by entry. Tags and fused reporters are not part of them.
UniProt P05412: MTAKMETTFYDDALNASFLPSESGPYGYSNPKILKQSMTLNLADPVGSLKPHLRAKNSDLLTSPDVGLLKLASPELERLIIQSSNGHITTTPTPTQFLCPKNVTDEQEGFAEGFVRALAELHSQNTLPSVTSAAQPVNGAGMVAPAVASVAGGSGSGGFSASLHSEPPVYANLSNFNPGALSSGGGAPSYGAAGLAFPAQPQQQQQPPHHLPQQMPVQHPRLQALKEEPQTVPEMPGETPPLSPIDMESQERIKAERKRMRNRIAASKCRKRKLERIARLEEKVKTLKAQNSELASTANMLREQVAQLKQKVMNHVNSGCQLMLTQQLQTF
UniProt P61244: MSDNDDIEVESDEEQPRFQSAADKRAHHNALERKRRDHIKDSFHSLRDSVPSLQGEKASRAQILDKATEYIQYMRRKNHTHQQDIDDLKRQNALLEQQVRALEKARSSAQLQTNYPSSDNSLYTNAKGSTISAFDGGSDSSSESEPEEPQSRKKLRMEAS

Molecular target: Jun-NV (UniProt P05412)
Assay: split reporter; split Venus BiFC (NV, VN173 and CV, VC155) in co-transfected HEK293 cells, fixed 20 to 24 h after transfection, confocal imaging, ER shown by anti-calreticulin

Substance: Max-CV (from UniProt P61244 1-160)
- binding: no binding
